In patent publication US20180105585A1:
Results are given in words; binding and its absence hold for the method and conditions named. Some results given as binding are weak or reduced against the parent protein; the word gives no strength.

Chains of the proteins cited; added tags and fusions are not shown. Residues count along the entry.
UniProt P05067, residues 672-713: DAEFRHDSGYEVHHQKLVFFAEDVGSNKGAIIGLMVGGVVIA

How the values were obtained:
[1] = target: Amyloid beta plaques in Tg2576 mouse brain sections (human (transgene in mouse)) (UniProt P05067); assay: in vitro immunohistochemistry, diffuse plaques and CAA plaques
[2] = target: Amyloid beta plaques in human Alzheimer's Disease brain sections (human) (UniProt P05067); assay: as above
[3] = target: Amyloid beta plaques in Tg2576 mouse brain sections (human (transgene in mouse)) (UniProt P05067); assay: immunohistochemistry, sections stained in vitro with the antibody in excess

Measured: binding

B1: Abet0380-GL IgG1-TM (antibody, V domains shown)
VH: EVQLLESGGGLVQPGGSLRLSCAASMGNFNYQTMWWVRQAPGKGLEWVSVIGKTNENIAYADSVKGRFTISRDNSKNTLYLQMNSLRAEDTAVYYCAREWMDHSRPYYYYGMDVWGQGTLVTVSS
VL: SYELTQPPSVSVSPGQTASITCSGHNLEDKFASWYQQKPGQSPVLVIYRDDKRPSGIPERFSASNSGHTATLTISGTQAMDEADYYCSSQDTVTRVFGGGTKLTVL
binds: all assays above
